This passage reports IC50 results from patent publication US20090036387A1, “NOVEL CHEMICAL ENTITIES AFFECTING NEUROBLASTOMA TUMOR-INITIATING CELLS” (The Hospital for Sick Children, priority 2005, published 2009).

As usually defined, the IC50 is the concentration that inhibits the measured activity by half.

The assay has as its system NB12 tumor-initiating cells. Put plainly: IC50 determination, Alamar Blue cell survival/growth assay. Format: cell-based. Particulars: Homo sapiens, read-out: NB12 IC50 (nM). As for the experimental part: FIG. 4A-4E, according to one embodiment of the invention, presents the IC50 values that were determined for the 64 selected candidate compounds. […] Tumor-initiating cells and normal cells were treated with 10 serial dilutions of compounds (5 μM to 9 nM). […] (FS90=normal cells; NB12=tumor-initiating cells).
FIG. 6A-6FF, according to one embodiment of the invention, presents IC50 values for 32 selected compounds from the LOPAC and Prestwick collections. Tumor-initiating cells (NB12) and normal cells (FS90) were treated with 10 serial dilutions of compounds ranging from 5 μM to 9 nM. Cell survival/growth was assayed using Alamar Blue and the percentage of control Alamar Blue signal was plotted versus log[compound] nM. IC50 values for NB12 are given above each plot.
FIG. 7A-7FF, according to one embodiment of the invention, represents IC50 values determined for 32 selected compounds from the LOPAC, Prestwick, and Spectrum collections. Tumor-initiating cells (NB12) and normal cells (FS90) were treated with 10 serial dilutions of compounds ranging from 5 μM to 9 nM. Cell survival/growth was assayed using Alamar Blue and the percentage of control Alamar Blue signal was plotted versus log[compound] nM (FS90 in dashed line, NB12 in bolded line). IC50 values for NB12 and FS90 are given beside each plot. […]

For `COc1cc2c(c(OC)c1OC)-c1ccc(OC)c(=O)cc1[C@@H](NC(C)=O)CC2` [Colchicine], the IC50 is 29.3 nM.
